For test [1], the target named is T1, PAR4 (Homo sapiens (Human), UniProt Q96RI0). The test is described as follows: FLIPR assay in PAR4-expressing HEK293 cells (PAR4 antagonist activity, calcium mobilization). The test is classed as cell-based. The following applies: read-out: PAR4 FLIPR Assay (IC50), FLIPR assay as described in Example A. In general terms: Calcium assays in cells follow changes in intracellular calcium, usually with a dye or a luminescent sensor.

Amino acid sequences for entries named in this document (tags omitted). Residues count along the entry.
UniProt Q96RI0, 18-385 limits assumed: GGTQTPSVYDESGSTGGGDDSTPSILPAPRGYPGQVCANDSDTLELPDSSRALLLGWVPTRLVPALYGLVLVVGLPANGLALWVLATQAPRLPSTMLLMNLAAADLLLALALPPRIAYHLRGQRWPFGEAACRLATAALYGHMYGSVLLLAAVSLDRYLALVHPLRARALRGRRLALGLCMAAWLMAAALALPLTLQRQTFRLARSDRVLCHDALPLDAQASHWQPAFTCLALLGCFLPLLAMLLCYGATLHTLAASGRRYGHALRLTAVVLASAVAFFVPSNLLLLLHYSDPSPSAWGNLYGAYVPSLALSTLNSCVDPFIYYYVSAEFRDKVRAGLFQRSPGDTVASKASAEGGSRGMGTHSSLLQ

Test [2] addresses T1, PAR4. The test is described as follows: Gamma thrombin induced platelet aggregation assay in PRP (PRP assay). The format is cell-based. Conditions: read-out: PAR4 PRP Assay (Gamma Thrombin, IC50).

Structures were worked out from names or drawings and are uncertain.

On to `COc1cc(COc2cc(OC)cc3oc(-c4cn5nc(OC)sc5n4)cc23)cc(OCc2ccccc2)c1` [Example 404], for which the IC50 (as a rule, the concentration at which inhibition is half-maximal) at PAR4 [1] was 2.06 nM. Consider `COc1cc(OCc2cccc(OCc3ccccc3)c2)c2cc(-c3cn4nc(Cl)sc4n3)oc2c1` [Example 405], for which the values for the IC50 on PAR4 [2] and at PAR4 [1] were 95.6 nM and 2.54 nM, respectively.
